Primary screen of a compound library

T. brucei: 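Whole-parasite assay of Trypanosoma brucei over 72 hours; the read-out is not stated. Concentration: 30 µM. The record gives no direction; compounds that gave an IC50 in retests scored well above the rest, so higher reads as stronger inhibition. Values scatter widely below zero; nearly all retest evidence comes from the higher of the two concentrations used. About 64,000 compounds were tested under these conditions; 1.5% (about 940) showed 50% or more at least once.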
Toxoplasma: 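Assay of Toxoplasma gondii numbers, read through their beta-galactosidase reporter with a colour substrate. Concentration: 10 µM. The record gives no direction; the compounds picked for IC50 retests had high values, so higher reads as fewer parasites. Size under these conditions: about 67,000 compounds, about 260 of them at 50% or above in at least one test.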

Results are given as percent effect. How 0% and 100% were set is not recorded. Most values in the screen are low, and negative values occur. Compounds were drawn at random from those tested, without regard to their results. A dash means the value is not listed here; it may have been measured.

compound,T. brucei,Toxoplasma
c1ccc(Cc2noc(CN3CCc4c(ncn4C4CC4)C3)n2)cc1,-19.06,10.51
Cc1ccsc1CCNC(=O)C1(Oc2cccnc2C)CCNCC1,-3.094,2.029
CC(C)Nc1cccc(CNC(=O)N2CCC(N3CC=CC3)C2)c1 (stereo not given),-14.29,-6.116
CCOCc1ccccc1NC(=O)NC1CCN(c2ncccn2)CC1,12.43,1.343
COc1ccc(S(=O)(=O)N2Cc3c(CN(C)C)nn(C)c3C2)cc1.O=C(O)C(F)(F)F,-35.53,-5.756
CC1CCc2nc(O)c(C(=O)NCc3ccccn3)cc2C1 (stereo not given),-28.19,-7.781
O=C(CN1CCSC(c2ccccc2)C1)NCc1ccccn1 (stereo not given),-40.98,17.04
Nc1cccc(-c2cccc3ccnn23)n1,4.304,1.535
CN(Cc1cccnc1)C1CC2(CCN(c3ncc(F)cn3)CC2)C1.O=C(O)C(F)(F)F.O=C(O)C(F)(F)F,-16.03,1.428
COCCN(Cc1ccc(F)cc1Cl)C(=O)c1cc[n+]([O-])cc1,-22.46,-1.264
CO[C@H]1CN(C(=O)OC(C)(C)C)CC1NCc1cccn1C (stereo not given in full),-31.18,5.34
Cc1nc(N2CCOCC2)nc2c1COCC21CCN(CC2CC2)C1.O=C(O)C(F)(F)F (stereo not given),-230.7,2.426
Cc1nc(CC(=O)N2CCC(Nc3cccnn3)CC2)cs1,-23.63,5.275
Cc1cccc(NC(=O)NC2CCN(C3CCOC3)CC2)c1 (stereo not given),-33.28,-1.831
Cc1nn(C)c(C)c1C1CCCN1C(=O)c1ccc(NC2CC2)nc1 (stereo not given),21.76,5.6
CS(=O)(=O)CCCN1CCSCC1c1ccc(Cl)cc1 (stereo not given),-6.977,-28.77
O=C(CCn1c(C(F)(F)F)cc2cccnc21)NC1CCCC1,-7.7,4
Cc1nn(C)c(C)c1C1COCCN1C(=O)NC1CC1 (stereo not given),-13.72,6.956
O=C(C1CCOCC1)N1CC[C@@H](O)[C@@H]1Cc1ccncc1,-76.51,-19.09
O=C(O)C(F)(F)F.[H][C@@]12CN(C(=O)C3CC3)C[C@]1([H])C(=O)N(Cc1csc(C)n1)C2,-,-1.345
Cc1ncc(C(=O)N2CCOC(C(=O)N3CCCCC3)C2)c(C)n1 (stereo not given),35.2,-15.72
Cc1nn(C(=O)c2cccnc2)c(C)c1C,-8.254,21.52
OC[C@@H]1CCCN1c1nccc(-c2c[nH]nc2-c2ccncc2)n1,21.87,-24.25
CC(=O)N1CCOC(c2c(C(=O)NCCN(C)C)sc3ccccc23)C1 (stereo not given),-,15.05
CCN1CCN(C[C@@H]2CN(c3ncccc3F)C[C@@H]2CO)CC1,-10.57,-3.029
CCOCCCNC(=O)NC(C)c1ccc(-n2cncn2)cc1 (stereo not given),-48.98,3.02
O=C(c1cc2cc(F)ccc2[nH]1)N1CCC(Nc2cccnn2)CC1,-6.499,-9.9
CSC(C)CCN1CCCn2nc(CNC(=O)C3CCC3)cc2C1 (stereo not given),-14.05,0.811
O=C(C1CCCN1c1ncnc2ccsc12)N1CCSCC1 (stereo not given),-6.061,0.885
CCOCC1CN(c2ncccn2)Cc2cnn(CC3CCOCC3)c21 (stereo not given),-5.99,1.13
Cc1cc(C)n(C2CCCN(C(=O)COCC(F)(F)F)C2)n1 (stereo not given),-10.78,-16.17
[H][C@]12CC[C@]([H])(CN(Cc3c(C)noc3C)C1)N(Cc1ccc(F)c(C)c1)C2,-4.135,19.75
O=C(CC1CC1)N1Cc2nccn2CC(CN2CCCC2)C1 (stereo not given),-9.974,-5.748
Cc1nc(C)n(CC2CCCCN2Cc2nc3ccccc3o2)n1 (stereo not given),-29.61,-13.27
O=C1C(NCc2nnc3n2CCCC3)CCN1c1ccccc1 (stereo not given),-18.12,-2.331
NC(=O)c1cc(C2CCCN(CCCOc3ccccc3)C2)n[nH]1 (stereo not given),-6.306,-8.045
Cc1cnc(C(=O)N(CCN(C)C)Cc2ccc(Cl)cc2)cn1,-12.86,3.315
Cc1csc(CN2CCC3(CC2)COC(COCC2CC2)C3)n1.O=C(O)C(F)(F)F (stereo not given),-1.163,-15.26
CCc1csc(C2CCCN(C(=O)c3ncccn3)C2)n1 (stereo not given),-17.94,-8.273
CC(C)CC(=O)NS(=O)(=O)c1ccc(C#N)cc1C(F)(F)F,1.886,-41.83
CCS(=O)(=O)c1ccc(NCc2csc(C(C)C)n2)cc1,-21.15,-12.04
CN(CCC#N)C(=O)CN1CCCN(Cc2noc(C3CC3)n2)CC1,-15.17,1.011
Cc1nn(-c2ccccc2)cc1C(=O)N1CCCC(n2ccnc2)C1 (stereo not given),18.5,-2.983
COc1c(CNC2CCOc3c(Cl)cccc32)c(C)nn1C.Cl (stereo not given),-11.37,-5.172
CN(C)[C@@H]1CN(C(=O)c2ccc3ccccc3n2)C[C@H]1O,-38.8,5.681
CSCC(C)(O)CNc1ncccc1I (stereo not given),-227.4,-3.339
COc1ccc2c(c1)C(=O)NC1(CC2)CCN(Cc2ccccn2)C1 (stereo not given),-19.21,-10.08
Cc1[nH]/c(=N/C(=O)Cn2nc(N3CCOCC3)ccc2=O)sc1C,-14.85,5.232
CC(=O)N1CCc2c(nc(N(C)C)nc2NC(C)Cc2cccs2)C1 (stereo not given),-,0.5671
O=C(NCCS(=O)(=O)N1CCN(c2ncccn2)CC1)C1CCCC1,-25.21,-3.79
CCn1c(C)cc(C(=O)N2CCC(Nc3cccnn3)CC2)c1C,-28.83,-1.619
CCN1CC(C(=O)NCc2ccnc(-n3ccnc3C)c2)CC1=O (stereo not given),-28.12,1.861
CCc1cc(CN(C)Cc2nc(-c3ccc(OC)cc3F)oc2C)on1,-11.58,6.012
Cn1ccnc1CN1CCN(CC(O)c2ccc(F)c(F)c2)CC1 (stereo not given),-32.12,-2.329
Cn1c(N)nnc1SC1CCCN(c2ccccc2)C1=O (stereo not given),-46.24,4.639
Cn1cc(CN2CCCC3(CCN(Cc4cccnc4)C3=O)C2)cn1 (stereo not given),-,0.4841
Cc1csc2c(=O)n3c(nc12)CCN(C(=O)c1cccnc1)CC3,13.24,14.54
CCn1cnnc1C1CCN(C(=O)c2cc(F)ccc2OC)CC1,-5.664,13.38
CNS(=O)(=O)CCn1cc(-c2cc3c(cc2OC)CCC3)nn1,4.82,-10.75
Cc1nc(-c2nnc(SCC(=O)O)n2C(C)c2ccccc2)co1 (stereo not given),-40.61,3.918
O=C(Cc1ccsc1)N1CCC(c2ccncc2)CC1,-39.81,-38.21
CC(=O)NCC(=O)N1CCc2c(CN(C)C)nn(C(C)C)c2C1,-73.24,-5.34
CCc1cnc(CNC(=O)NC2CCN(C3CCCC3)CC2)s1,-2.193,-4.956
Cc1ncsc1C(=O)Nc1cccc(OCC(F)F)n1,21.78,-1.458
Fc1cccc(-c2nnn3c2COC(CNc2ncccn2)C3)c1 (stereo not given),-8.028,3.845
COCC(=O)Nc1ccc(N2CCC(OC)CC2)c(C(F)(F)F)c1,-20.8,-8.739
CN(C)C(=O)NC1COC2(CCN(Cc3ccc(N(C)C)cc3)CC2)C1 (stereo not given),-7.3,-5.216
CCS(=O)(=O)N1CCC(NC(=O)c2cc(C(C)C)ccc2O)CC1,12.2,-21.13
CCOCCn1c(=O)[nH]c2cc(C(=O)N(C)CCc3cn[nH]c3)ccc21,-6.291,-3.116
COC(=O)C(NC(=O)COC1CCCCC1)c1ccccc1 (stereo not given),-72.07,7.194
CC(=O)N(Cc1noc(C)n1)C1CCN(Cc2ccon2)C1 (stereo not given),0.1937,-21.43
Cc1ccc(OCC(=O)NS(=O)(=O)c2cccnc2)cc1C,-82.95,-1.553
CN(CCC(=O)N1CCc2sccc2C1)Cc1cc(Br)cs1,5.791,-16.65
CNC(=O)c1cccc(CCNc2ccc(C#N)cn2)c1,-9.831,3.599
Cc1cc(NCCCNc2cccnc2)n2nc(C)c(C)c2n1,14.07,1.571
CN1CCN(Cn2nc(-c3cccs3)ccc2=O)CC1,-27.09,-5.431
Cc1noc(C)c1CNCC1COCc2c(-c3ccsc3)nnn2C1.O=C(O)C(F)(F)F (stereo not given),-12.12,-6.355
Cc1ccnc(NC(=O)C2CCN(CCCn3ccnc3C)CC2)c1,-38.96,-22.5
CCc1c(C)sc2nc3n(CCN4CCCCC4)nc(SC)n3c(=O)c12,-15.6,-19.55
c1ccc(-n2cc(CNC3CCc4ncnn4C3)cn2)cc1 (stereo not given),-,1.369
CCc1noc(CN(C)C(=O)COc2cc(Cl)cc(Cl)c2)n1,-77.42,-6.44

For reference, 4 entries once more:

compound	T. brucei	Toxoplasma
CCc1cnc(CNC(=O)NC2CCN(C3CCCC3)CC2)s1	-2.193	-4.956
Cn1cc(CN2CCCC3(CCN(Cc4cccnc4)C3=O)C2)cn1 (stereo not given)	-	0.4841
O=C(CN1CCSC(c2ccccc2)C1)NCc1ccccn1 (stereo not given)	-40.98	17.04
Cc1cc(C)n(C2CCCN(C(=O)COCC(F)(F)F)C2)n1 (stereo not given)	-10.78	-16.17

Data taken from ChEMBL document CHEMBL3988442, “University of Dundee, Small-Polar-MMV Screening Library” (2021).